In PMC10630885:
These are yes or no findings as the source states them, for the method shown. Binding seen in cells or lysates may run through a third protein. Some entries that bind do so weakly or less than the wild type. For some assays here: Sequences can lack the tags named with a protein.

Protein sequences, listed by entry. Tags and fused reporters are not part of them. Residues count along the entry.
UniProt P11021, residues 19-654: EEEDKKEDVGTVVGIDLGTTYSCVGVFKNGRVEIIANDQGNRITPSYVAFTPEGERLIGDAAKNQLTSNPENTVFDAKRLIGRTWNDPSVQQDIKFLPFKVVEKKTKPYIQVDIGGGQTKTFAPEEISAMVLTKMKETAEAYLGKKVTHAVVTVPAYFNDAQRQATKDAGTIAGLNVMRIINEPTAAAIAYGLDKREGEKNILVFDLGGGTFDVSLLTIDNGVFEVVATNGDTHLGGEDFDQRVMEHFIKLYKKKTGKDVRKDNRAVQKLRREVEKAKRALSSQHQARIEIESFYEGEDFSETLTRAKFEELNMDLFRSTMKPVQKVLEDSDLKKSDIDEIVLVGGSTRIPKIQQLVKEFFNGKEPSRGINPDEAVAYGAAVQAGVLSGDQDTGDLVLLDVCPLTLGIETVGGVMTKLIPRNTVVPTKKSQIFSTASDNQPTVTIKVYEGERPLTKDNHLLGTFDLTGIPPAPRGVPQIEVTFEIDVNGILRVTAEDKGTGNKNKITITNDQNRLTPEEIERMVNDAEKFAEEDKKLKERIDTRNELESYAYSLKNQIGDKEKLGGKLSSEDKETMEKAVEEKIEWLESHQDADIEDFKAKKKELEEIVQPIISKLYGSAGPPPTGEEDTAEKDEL
UniProt P30101, residues 25-505: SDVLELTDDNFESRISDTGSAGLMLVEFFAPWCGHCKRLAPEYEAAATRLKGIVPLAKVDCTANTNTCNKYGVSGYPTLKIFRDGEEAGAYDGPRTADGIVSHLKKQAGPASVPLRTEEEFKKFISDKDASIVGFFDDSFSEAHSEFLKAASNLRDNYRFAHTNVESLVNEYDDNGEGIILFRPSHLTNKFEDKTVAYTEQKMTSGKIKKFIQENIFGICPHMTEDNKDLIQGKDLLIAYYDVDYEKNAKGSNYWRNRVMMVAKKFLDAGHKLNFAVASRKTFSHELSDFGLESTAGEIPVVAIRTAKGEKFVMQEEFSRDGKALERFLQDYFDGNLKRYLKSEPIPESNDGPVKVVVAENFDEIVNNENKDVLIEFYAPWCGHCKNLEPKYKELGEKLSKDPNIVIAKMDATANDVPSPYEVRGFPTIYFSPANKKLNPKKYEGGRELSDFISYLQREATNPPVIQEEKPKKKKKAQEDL

Legend:
[1] = target: T1, NRF3 (endogenous) (human (endogenous in SCC13)) (UniProt Q9Y4A8); assay: proximity ligation; Duolink In Situ Red kit on fixed, permeabilised SCC13 cells; transduced cells (1 μg/ml Dox, 24 h) with anti-HA and anti-PDIA3; SCC13 wt cells with anti-NRF3 and anti-PDIA3 or anti-HSPA5
T1 sequence: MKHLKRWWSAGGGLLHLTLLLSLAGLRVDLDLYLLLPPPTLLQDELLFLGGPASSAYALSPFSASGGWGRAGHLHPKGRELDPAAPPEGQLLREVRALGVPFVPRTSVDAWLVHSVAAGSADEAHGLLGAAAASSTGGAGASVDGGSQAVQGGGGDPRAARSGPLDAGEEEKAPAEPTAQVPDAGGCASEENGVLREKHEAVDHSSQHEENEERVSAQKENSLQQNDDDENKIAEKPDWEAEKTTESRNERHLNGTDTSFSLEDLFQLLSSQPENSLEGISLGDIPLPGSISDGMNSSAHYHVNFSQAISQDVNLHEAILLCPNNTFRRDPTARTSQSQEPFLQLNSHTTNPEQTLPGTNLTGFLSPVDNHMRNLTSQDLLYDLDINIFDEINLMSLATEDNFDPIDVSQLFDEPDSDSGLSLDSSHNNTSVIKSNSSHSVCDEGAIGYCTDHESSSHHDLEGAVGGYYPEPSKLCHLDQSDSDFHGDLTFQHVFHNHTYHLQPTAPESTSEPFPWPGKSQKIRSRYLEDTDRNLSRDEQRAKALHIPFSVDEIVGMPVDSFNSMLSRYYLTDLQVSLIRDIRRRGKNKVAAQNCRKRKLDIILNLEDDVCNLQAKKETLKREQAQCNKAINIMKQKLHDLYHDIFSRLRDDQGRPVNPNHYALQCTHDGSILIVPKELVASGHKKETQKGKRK

[2] = target: T2, HA-tagged NRF3-BioID fusion protein (human) (UniProt Q9Y4A8); assay: co-IP; anti-HA magnetic beads, overnight at 4°C; lysates of transduced SCC13 cells cultured with or without Dox (1 μg/ml) and with MG-132 (10 μM); IP buffer 0.05% NP-40, 10% glycerol, 150 mM NaCl, 5 mM HEPES pH 7.4, 5 mM EDTA, 0.25% deoxycholate; partners detected by Western blot
T2 sequence: T1 sequence

[3] = target: T2, HA-tagged NRF3-BioID fusion protein (human); assay: proximity ligation; Duolink In Situ Red kit on fixed, permeabilised SCC13 cells; transduced cells (1 μg/ml Dox, 24 h) with anti-HA and anti-PDIA3; SCC13 wt cells with anti-NRF3 and anti-PDIA3 or anti-HSPA5

Row | Substance | binding [1] | binding [2] | binding [3]
1 | heat shock protein A5 (HSPA5) (from UniProt P11021 19-654) | binds | binds | –
2 | protein disulfide-isomerase A3 (PDIA3) (from UniProt P30101 25-505) | binds | binds | binds
